Measured values from EP0527889B1, “QUINOLIZINONE TYPE COMPOUNDS” (priority 1990, dated 1991).
Counter-ions that a name gives are not always drawn.

How the values were obtained:
Escherichia coli JUHL = assay: In vivo antibacterial activity in mice (protection from lethal intraperitoneal infection); conditions: 144 h
Protocol: (§1) The in vivo antibacterial activity of the compounds of the present invention was determined as follows: Aqueous solutions of the test compounds were prepared by dissolving the compound in distilled water, except for the compounds of examples 169 and 170 which were dissolved in a solution of 2% DMSO in distilled water.
(§2) After 18 hr incubation, a culture of Staphylococcus aureus NCTC 10649 was serially diluted by using 10-fold dilutions in 5% (w/v) hog gastric mucin. Cultures (0.5 mL) in a dilution from 10^-1 to 10^-8 were injected intraperitoneally into CF-1 female mice weighing approximately 20g. The LD50 (median lethal dose) for the test organism was calculated from the cumulative mortalities on the sixth day by the using the Reed and Muench procedure (Reed, L.J., and H. Muench, Amer. J. Hygiene, 27, 493 (1938)).
The above 18 hr culture was diluted in 5% (w/v) hog gastric mucin to obtain 100 times the LD50, and 0.5 mL was injected intraperitoneally into mice. […]
The LD50 for Escherichia coli JUHL was determined in a manner similar to that above for S. aureus. The 18 hr cultures of this organism were also prepared for po and sc testing in mice, from which ED50 values were calculated. Positive controls were run with temafloxacin as the test compound, for which ED50 values were also calculated.

[1] = test system: Staphylococcus aureus NCTC 10649; assay: as above; conditions: 144 h
Protocol: as §1, §2
The above 18 hr culture was diluted in 5% (w/v) hog gastric mucin to obtain 100 times the LD50, and 0.5 mL was injected intraperitoneally into mice. The mice were treated subcutaneously (sc) or orally (po) with a specific amount of the test compound divided equally to be administered at 1 and 5 hr after infection. A group of 10 animals each for at least three dose levels was thus treated, and the deaths were recorded daily for 6 days. Ten mice were left untreated as infection control. […]

SMILES: NC1CCN(c2nc3c(-c4ccc(F)cc4F)cc(C(=O)O)c(=O)n3cc2F)C1 (stereo not shown) [Example 162, 2-(3-Aminopyrrolidin-1-yl)-9-(2,4-difluorophenyl)-3-fluoro-6H-6-oxopyrido[1,2-a]pyrimidine-7-carboxylic acid trifluoroacetic acid salt]
- ED50 (Escherichia coli JUHL; po): 5.6 mg/kg
- ED50 (Escherichia coli JUHL; sc): 1 mg/kg
- ED50 ([1]; NCTC10649, po): 12 mg/kg
- ED50 ([1]; NCTC10649, sc): 4.4 mg/kg
